The results in this text go back to US20200165572A1, “ENGINEERED SUBSTRATES FOR HIGH-THROUGHPUT GENERATION OF 3D MODELS OF TUMOR DORMANCY, RELAPSE AND MICROMETASTASES FOR PHENOTYPE SPECIFIC DRUG DISCOVERY AND DEVELOPMENT” (Arizona Board of Regents on behalf of Arizona State …, priority 2015, published 2020).

The series relates to NIH3T3-T24 3DTMs. Briefly: Drug penetration into 3DTMs (fluorescence microscopy). It counts as cell-based, human, murine. The conditions noted are these: 24 hours.

Entries after “also recorded” stand apart in the source; their conditions may differ.

For the compound `O=C1c2c(O)ccc(O)c2C(=O)c2c(NCCNCCO)ccc(NCCNCCO)c21` [mitoxantrone], the “drug penetration into 3DTM” value is reported as “permeation throughout; also recorded: complete penetration”.
